Where a name gives a salt, the structure may show the parent alone.
System: mucus of sound animals (rabbits)
Test: Fluidizing activity - viscosity of mucus of sound animals (Contraves Rehomat microviscosimeter)
Format: in vivo, rabbit
Details: 20 mg/kg i.v.
Method: The pharmacological activity was measured by studying the effect on the compound (CO/1177) on:
(b) viscosity of mucus of sound animals (rabbits) and/or of animals made bronchitic experimentally by using, for the viscosimeter measures, a Contraves Rehomat microviscosimeter at 15 automatic scanning speeds;

For O=C(O)c1ccccc1C(=O)N1CCSC1 [CO/1177, 2-(1,3-thiazolidin-3-yl)-carbonyl-benzoic acid (Na salt)], the “Viscosity, time -24→0 (before administration)” value (from here on “Viscosity, time”) (speed 17.4 g/min) was 9.56 cps, the “Viscosity, time” value (speed 25 g/min) was 10.58 cps and the “Viscosity, time” value (speed 33.6 g/min) was 9.20 cps. For the same molecule, the “Viscosity, time” value (speed 44.3 g/min) was 7.00 cps, the “Viscosity, time” value (speed 56.1 g/min) was 7.50 cps and the “Viscosity, time” value (speed 77.9 g/min) was 5.49 cps. The “Viscosity, time” value (speed 113.2 g/min) was 3.61 cps, the “Viscosity, time” value (speed 152 g/min) was 3.42 cps and the “Viscosity, time” value (speed 200 g/min) was 3.48 cps. The “Viscosity, time” value (speed 266.8 g/min) was 3.19 cps and the “Viscosity, time” value (speed 352 g/min) was 3.05 cps.
